± gives the standard deviation of the averaged measurements. Some of the results follow.
Columns and labels:
Experiment in all cases: NP40-soluble protein abundance relative to vehicle (solubility fold change) (ratio); higher = more soluble protein in presence of GTP
[1] = target: T1, PCYOX1 (UniProt Q9UHG3)
T1 sequence (whole entry): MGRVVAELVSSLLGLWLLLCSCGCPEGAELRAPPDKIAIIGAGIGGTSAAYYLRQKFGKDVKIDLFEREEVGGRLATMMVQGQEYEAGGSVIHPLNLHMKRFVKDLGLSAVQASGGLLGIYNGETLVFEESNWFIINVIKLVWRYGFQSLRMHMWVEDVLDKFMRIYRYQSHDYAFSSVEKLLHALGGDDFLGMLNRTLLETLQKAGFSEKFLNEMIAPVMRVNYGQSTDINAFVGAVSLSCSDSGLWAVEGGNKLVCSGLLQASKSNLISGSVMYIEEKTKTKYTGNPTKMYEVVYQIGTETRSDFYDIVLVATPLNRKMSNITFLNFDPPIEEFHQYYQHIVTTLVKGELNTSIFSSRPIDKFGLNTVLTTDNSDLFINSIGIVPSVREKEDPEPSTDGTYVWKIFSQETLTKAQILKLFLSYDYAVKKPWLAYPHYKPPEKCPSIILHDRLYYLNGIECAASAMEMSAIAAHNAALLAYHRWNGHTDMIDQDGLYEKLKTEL
In short: (§1)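 Crude Jurkat lysate, prepared by Dounce homogenisation, was exposed to eight concentrations from 0.1 to 10 mM for 10 min at room temperature and then 3 min at 37 °C. Solubilisation used 0.8% NP40 with benzonase for 60 min at 4 °C, followed by ultracentrifugation and TMT labelling of the supernatant for LC-MS/MS. After vsn normalisation of intensities, each value is the fold change against the detergent-processed vehicle within each replicate, across three independent experiments.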

[2] = target: T2, SERGEF (UniProt Q9UGK8)
T2 sequence (whole entry): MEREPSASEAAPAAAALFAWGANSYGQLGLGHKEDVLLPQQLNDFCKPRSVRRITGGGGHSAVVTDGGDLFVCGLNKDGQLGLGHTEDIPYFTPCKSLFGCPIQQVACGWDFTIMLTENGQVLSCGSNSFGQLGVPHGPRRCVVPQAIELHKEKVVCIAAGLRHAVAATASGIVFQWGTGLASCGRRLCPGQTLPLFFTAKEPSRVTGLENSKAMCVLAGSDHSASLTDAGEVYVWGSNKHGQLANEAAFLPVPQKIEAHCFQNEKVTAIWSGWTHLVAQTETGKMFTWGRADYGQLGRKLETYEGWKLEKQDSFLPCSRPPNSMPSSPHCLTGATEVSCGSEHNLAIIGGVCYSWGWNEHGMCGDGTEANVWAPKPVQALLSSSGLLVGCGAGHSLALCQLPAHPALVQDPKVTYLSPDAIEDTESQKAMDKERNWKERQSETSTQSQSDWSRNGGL
In short: as §1

[3] = target: T3, TFIP11 (UniProt Q9UBB9)
T3 sequence (whole entry): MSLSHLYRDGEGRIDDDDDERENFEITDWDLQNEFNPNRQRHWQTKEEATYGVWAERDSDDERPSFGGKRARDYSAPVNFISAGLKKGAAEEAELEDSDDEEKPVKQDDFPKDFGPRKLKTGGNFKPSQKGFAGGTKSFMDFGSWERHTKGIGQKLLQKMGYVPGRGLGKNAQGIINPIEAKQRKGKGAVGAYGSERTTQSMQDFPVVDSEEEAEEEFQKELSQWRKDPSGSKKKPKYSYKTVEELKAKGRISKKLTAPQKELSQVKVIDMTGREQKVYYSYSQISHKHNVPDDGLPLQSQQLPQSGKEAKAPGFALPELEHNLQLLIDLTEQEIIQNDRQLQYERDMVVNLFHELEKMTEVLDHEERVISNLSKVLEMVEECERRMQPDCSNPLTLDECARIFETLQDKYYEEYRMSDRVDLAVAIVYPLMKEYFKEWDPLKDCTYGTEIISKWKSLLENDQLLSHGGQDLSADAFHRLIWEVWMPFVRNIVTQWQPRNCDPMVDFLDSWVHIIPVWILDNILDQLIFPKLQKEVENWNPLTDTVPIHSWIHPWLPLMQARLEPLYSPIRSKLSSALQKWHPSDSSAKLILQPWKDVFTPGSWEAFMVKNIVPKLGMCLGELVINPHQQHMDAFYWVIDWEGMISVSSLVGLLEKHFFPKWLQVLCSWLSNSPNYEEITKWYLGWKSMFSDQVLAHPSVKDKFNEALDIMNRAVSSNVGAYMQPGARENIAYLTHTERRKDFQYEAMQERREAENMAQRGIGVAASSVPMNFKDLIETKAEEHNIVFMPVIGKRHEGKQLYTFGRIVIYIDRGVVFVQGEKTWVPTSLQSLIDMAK
In short: as §1

[4] = target: T4, UniProt Q9NVE7 and related entries
T4 sequence (whole entry): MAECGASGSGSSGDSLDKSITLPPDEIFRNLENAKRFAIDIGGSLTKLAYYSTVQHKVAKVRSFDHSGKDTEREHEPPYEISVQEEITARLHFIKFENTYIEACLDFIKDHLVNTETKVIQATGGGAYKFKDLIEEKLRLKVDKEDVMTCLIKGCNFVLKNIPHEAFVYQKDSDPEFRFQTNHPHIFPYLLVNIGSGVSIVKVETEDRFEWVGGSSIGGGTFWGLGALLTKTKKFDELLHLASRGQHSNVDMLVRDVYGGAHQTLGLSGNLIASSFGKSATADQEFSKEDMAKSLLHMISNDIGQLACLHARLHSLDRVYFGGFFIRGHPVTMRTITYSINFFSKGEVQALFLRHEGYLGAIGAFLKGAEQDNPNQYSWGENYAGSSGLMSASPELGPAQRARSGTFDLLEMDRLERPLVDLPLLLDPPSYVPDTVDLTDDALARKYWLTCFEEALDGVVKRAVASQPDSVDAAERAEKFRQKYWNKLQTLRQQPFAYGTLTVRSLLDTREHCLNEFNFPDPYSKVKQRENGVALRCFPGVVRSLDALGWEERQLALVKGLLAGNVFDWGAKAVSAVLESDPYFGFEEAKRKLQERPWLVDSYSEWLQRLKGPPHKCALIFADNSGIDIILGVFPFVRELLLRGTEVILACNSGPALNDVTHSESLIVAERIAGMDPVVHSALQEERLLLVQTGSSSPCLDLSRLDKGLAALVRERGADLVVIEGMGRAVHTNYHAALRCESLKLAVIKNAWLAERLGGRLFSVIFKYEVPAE
In short: as §1

SMILES: Nc1nc2c(ncn2[C@@H]2O[C@H](COP(=O)(O)OP(=O)(O)OP(=O)(O)O)[C@@H](O)[C@H]2O)c(=O)[nH]1 [guanosine triphosphate]
- NP40-soluble protein abundance ([1]; concentration: 0.1mM): 1.08 ± 0.054
- NP40-soluble protein abundance ([1]; concentration: 0.5mM): 1.04 ± 0.077
- NP40-soluble protein abundance ([1]; concentration: 1mM): 0.968 ± 0.059
- NP40-soluble protein abundance ([1]; concentration: 2mM): 0.939 ± 0.058
- NP40-soluble protein abundance ([1]; concentration: 4mM): 0.91 ± 0.06
- NP40-soluble protein abundance ([1]; concentration: 6mM): 0.944 ± 0.09
- NP40-soluble protein abundance ([1]; concentration: 8mM): 0.899 ± 0.078
- NP40-soluble protein abundance ([1]; concentration: 10mM): 0.893 ± 0.12
- NP40-soluble protein abundance ([2]; concentration: 0.1mM): 1.04 ± 0.048
- NP40-soluble protein abundance ([2]; concentration: 0.5mM): 1.05 ± 0.078
- NP40-soluble protein abundance ([2]; concentration: 1mM): 0.999 ± 0.092
- NP40-soluble protein abundance ([2]; concentration: 2mM): 1.03 ± 0.11
- NP40-soluble protein abundance ([2]; concentration: 4mM): 0.954 ± 0.13
- NP40-soluble protein abundance ([2]; concentration: 6mM): 0.938 ± 0.11
- NP40-soluble protein abundance ([2]; concentration: 8mM): 0.953 ± 0.1
- NP40-soluble protein abundance ([2]; concentration: 10mM): 0.959 ± 0.18
- NP40-soluble protein abundance ([3]; concentration: 0.1mM): 1.04 ± 0.055
- NP40-soluble protein abundance ([3]; concentration: 0.5mM): 1.06 ± 0.07
- NP40-soluble protein abundance ([3]; concentration: 1mM): 1.07 ± 0.053
- NP40-soluble protein abundance ([3]; concentration: 2mM): 1.07 ± 0.071
- NP40-soluble protein abundance ([3]; concentration: 4mM): 1.06 ± 0.073
- NP40-soluble protein abundance ([3]; concentration: 6mM): 1.08 ± 0.065
- NP40-soluble protein abundance ([3]; concentration: 8mM): 1.14 ± 0.1
- NP40-soluble protein abundance ([3]; concentration: 10mM): 1.14 ± 0.11
- NP40-soluble protein abundance ([4]; concentration: 0.1mM): 1.11 ± 0.032
- NP40-soluble protein abundance ([4]; concentration: 0.5mM): 1.04 ± 0.05
- NP40-soluble protein abundance ([4]; concentration: 1mM): 1.01 ± 0.065
- NP40-soluble protein abundance ([4]; concentration: 2mM): 1.02 ± 0.027
- NP40-soluble protein abundance ([4]; concentration: 4mM): 0.972 ± 0.051
- NP40-soluble protein abundance ([4]; concentration: 6mM): 0.963 ± 0.037
- NP40-soluble protein abundance ([4]; concentration: 8mM): 0.956 ± 0.03
- NP40-soluble protein abundance ([4]; concentration: 10mM): 0.968 ± 0.075

From the supplement of paper PMC6411743
